Binding data for one substance are collected here from article PMC4669755.

Sequences of proteins named here, by UniProt entry; tags and fusion partners are left off. Residues count along the entry.
UniProt P19022, residues 160-906: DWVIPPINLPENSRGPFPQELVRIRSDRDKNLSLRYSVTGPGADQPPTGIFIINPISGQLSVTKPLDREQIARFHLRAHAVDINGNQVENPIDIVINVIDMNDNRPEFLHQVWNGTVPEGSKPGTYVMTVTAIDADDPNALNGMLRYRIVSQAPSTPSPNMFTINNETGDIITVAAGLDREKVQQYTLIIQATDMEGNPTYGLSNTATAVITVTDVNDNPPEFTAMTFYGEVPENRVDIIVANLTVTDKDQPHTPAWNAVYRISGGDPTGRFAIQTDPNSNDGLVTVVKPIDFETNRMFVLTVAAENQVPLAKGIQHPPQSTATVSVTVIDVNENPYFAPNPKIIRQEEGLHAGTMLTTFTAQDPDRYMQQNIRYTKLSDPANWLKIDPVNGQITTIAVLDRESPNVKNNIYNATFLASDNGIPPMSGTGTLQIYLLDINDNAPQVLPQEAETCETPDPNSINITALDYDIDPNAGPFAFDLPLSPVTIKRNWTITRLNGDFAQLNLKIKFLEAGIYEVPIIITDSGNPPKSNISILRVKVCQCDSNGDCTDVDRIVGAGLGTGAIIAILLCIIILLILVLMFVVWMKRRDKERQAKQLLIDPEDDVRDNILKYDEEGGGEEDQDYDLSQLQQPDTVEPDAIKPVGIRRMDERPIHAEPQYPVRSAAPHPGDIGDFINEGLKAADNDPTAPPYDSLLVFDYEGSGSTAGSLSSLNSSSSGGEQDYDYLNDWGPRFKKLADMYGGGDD
UniProt P35222: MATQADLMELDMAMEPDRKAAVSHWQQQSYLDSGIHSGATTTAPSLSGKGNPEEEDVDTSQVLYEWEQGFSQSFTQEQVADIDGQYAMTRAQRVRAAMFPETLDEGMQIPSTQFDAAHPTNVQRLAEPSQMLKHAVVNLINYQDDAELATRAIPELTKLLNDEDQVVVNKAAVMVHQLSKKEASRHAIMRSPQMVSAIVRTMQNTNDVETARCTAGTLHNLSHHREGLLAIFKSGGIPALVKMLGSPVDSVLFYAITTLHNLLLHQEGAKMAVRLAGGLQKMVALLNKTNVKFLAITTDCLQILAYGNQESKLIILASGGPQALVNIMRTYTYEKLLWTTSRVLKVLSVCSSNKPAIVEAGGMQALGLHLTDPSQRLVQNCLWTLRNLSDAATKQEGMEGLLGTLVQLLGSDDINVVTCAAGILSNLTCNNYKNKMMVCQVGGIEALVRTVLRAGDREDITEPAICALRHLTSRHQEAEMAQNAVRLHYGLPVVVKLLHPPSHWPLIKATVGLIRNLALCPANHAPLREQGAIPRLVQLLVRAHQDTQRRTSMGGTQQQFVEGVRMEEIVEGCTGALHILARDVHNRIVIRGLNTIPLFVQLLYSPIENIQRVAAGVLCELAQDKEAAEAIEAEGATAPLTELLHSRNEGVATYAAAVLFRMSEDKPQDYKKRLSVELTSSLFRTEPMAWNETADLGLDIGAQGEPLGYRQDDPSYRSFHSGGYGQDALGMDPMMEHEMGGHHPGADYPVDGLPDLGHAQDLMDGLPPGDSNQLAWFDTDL

The assay addresses N-cadherin (human (endogenous in sNF96.2)) (UniProt P19022). Nature of the assay: co-IP; lysates of sNF96.2 cells incubated 30 min with conditioned media (F+M control or FcoM; also from fibroblasts transfected with Si-Ctr or Si-SLIT2 siRNA); immunoprecipitation with N-cadherin antibody and agarose beads at 4 °C, immunoblot for β-catenin. For orientation: In western blotting, separated proteins are transferred to a membrane and probed.

No constants are given. Whether binding was seen depends on the method and setting. In cells and extracts the contact can be indirect. Some entries that bind do so weakly or less than the wild type.

For the substance β-catenin (from UniProt P35222 1-781), the binding entry is “binds”.
